Broadly, the EC50 is the concentration at which the effect is half-maximal. A low value points to higher potency in that assay.

The text below walks through data of US6579686B2, “Constitutive androstane receptor” (SmithKline Beecham Corporation, priority 2000, dated 2003).

For the data set, the target named is T1, mouse CAR (mCAR) (Mus musculus, UniProt O35627).
T1 sequence (O35627 1-358): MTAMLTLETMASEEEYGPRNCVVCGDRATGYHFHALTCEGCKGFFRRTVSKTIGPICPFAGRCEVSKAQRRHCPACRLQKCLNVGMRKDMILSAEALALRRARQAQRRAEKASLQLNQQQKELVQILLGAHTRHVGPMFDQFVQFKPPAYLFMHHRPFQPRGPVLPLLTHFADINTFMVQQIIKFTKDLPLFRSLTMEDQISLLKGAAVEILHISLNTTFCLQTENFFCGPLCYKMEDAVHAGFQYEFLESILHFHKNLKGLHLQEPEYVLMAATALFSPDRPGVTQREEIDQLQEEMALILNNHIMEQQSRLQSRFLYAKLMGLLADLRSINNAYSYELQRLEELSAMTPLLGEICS
The experiment in a line: in vitro.

In the case of `Clc1ccccc1C(c1ccccc1)(c1ccccc1)n1ccnc1` [clotrimazole], the EC50 was greater than 10 µM.
